Experimental data: PubChem BioAssay AID1671195 (Yale University, 2021)
The whole screen tested about 22,000 reagents; below is a part drawn at random. About 1,510 of all reagents (6.9%) count as active. 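Active includes knockdowns raising or lowering LDL uptake; positive z-scores mean more uptake, negative mean less.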 Reagent sequences are not shown.

Assay: 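Regulators of LDL receptor activity judged by labelled LDL uptake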 (primary screen)
Cell system: human Huh7 hepatoma cells
Knock-down reagent: siRNA pool against human genes, 18 nM
Duration: about 2 to 2.5 days of knockdown, then 8 h LDL uptake
Conditions: DiI-labelled LDL at 30 µg/ml for 8 h, in lipoprotein-deficient serum medium
Detection: 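Fluorescent LDL signal imaged in cells, scaled to the plate median, robust z-score for each replicate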
Reading the numbers: robust z-score: higher = more LDL uptake after knockdown
Active means: 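a gene counts as active if at least two replicate z-scores exceed ±2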

With knock-down of MYADM (myeloid associated differentiation marker), the screen gave robust z-score, replicate 1 = 0.734; robust z-score, replicate 2 = 1.27; robust z-score, replicate 3 = 0.397; inactive.
YBEY (ybeY metalloendoribonuclease) gave robust z-score, replicate 1 = -0.276; robust z-score, replicate 2 = -0.674; robust z-score, replicate 3 = 0.431; inactive.
After knock-down of RBM27 (RNA binding motif protein 27), the screen gave robust z-score, replicate 1 = -0.231; robust z-score, replicate 2 = 0.0305; robust z-score, replicate 3 = 0.636; inactive.
Knock-down of MRM3 (mitochondrial rRNA methyltransferase 3) came out at: robust z-score, replicate 1 = -1; robust z-score, replicate 2 = -1.07; robust z-score, replicate 3 = -0.868; inactive.
Silencing of ONECUT1 (one cut homeobox 1) gave: robust z-score, replicate 1 = -1.96; robust z-score, replicate 2 = -1.78; robust z-score, replicate 3 = -1.71; inactive.
For DCBLD1 (discoidin, CUB and LCCL domain containing 1) the deposit lists robust z-score, replicate 1 = -1.07; robust z-score, replicate 2 = -0.796; robust z-score, replicate 3 = -0.679; inactive.
Depletion of DYRK1B came out at: robust z-score, replicate 1 = -1.72; robust z-score, replicate 2 = -1.63; robust z-score, replicate 3 = -2.01; inactive.
After knock-down of LOC401544 (retired record) the results were robust z-score, replicate 1 = 1.45; robust z-score, replicate 2 = -0.0129; robust z-score, replicate 3 = 1.34; inactive.
Against MAGI1, the values are robust z-score, replicate 1 = -0.622; robust z-score, replicate 2 = 1.25; robust z-score, replicate 3 = 1.22; inactive.

Part of the list above, reformatted.
{"target": "ONECUT1 (one cut homeobox 1)", "robust z-score, replicate 1": -1.96, "robust z-score, replicate 2": -1.78, "robust z-score, replicate 3": -1.71, "call": "inactive"}
{"target": "DCBLD1 (discoidin, CUB and LCCL domain containing 1)", "robust z-score, replicate 1": -1.07, "robust z-score, replicate 2": -0.796, "robust z-score, replicate 3": -0.679, "call": "inactive"}

Next entries follow:
Knock-down of RECK (reversion inducing cysteine rich protein with kazal motifs) resulted in: robust z-score, replicate 1 = -0.983; robust z-score, replicate 2 = 0.0367; robust z-score, replicate 3 = -1.16; inactive.
Against ZDHHC11 (zDHHC palmitoyltransferase 11) the deposit lists robust z-score, replicate 1 = -0.252; robust z-score, replicate 2 = -0.307; robust z-score, replicate 3 = -0.235; inactive.
LINC03122 (long independently transcribed non-coding RNA 3122) gave robust z-score, replicate 1 = -0.059; robust z-score, replicate 2 = 0.155; robust z-score, replicate 3 = -0.311; inactive.
HSD17B1 (hydroxysteroid 17-beta dehydrogenase 1) showed robust z-score, replicate 1 = -0.739; robust z-score, replicate 2 = -1.35; robust z-score, replicate 3 = -0.908; inactive.
After knock-down of RXRB (retinoid X receptor beta) the results were robust z-score, replicate 1 = -0.442; robust z-score, replicate 2 = -1.29; robust z-score, replicate 3 = -1.72; inactive.
After knock-down of LOC442141 (retired record), the screen gave robust z-score, replicate 1 = -0.0103; robust z-score, replicate 2 = -0.434; robust z-score, replicate 3 = -0.257; inactive.
For RPL27AP2 (ribosomal protein L27a pseudogene 2) the deposit lists robust z-score, replicate 1 = -0.46; robust z-score, replicate 2 = 0.258; robust z-score, replicate 3 = 0.448; inactive.
TLN2 (talin 2) scored robust z-score, replicate 1 = -0.884; robust z-score, replicate 2 = -0.665; robust z-score, replicate 3 = -0.162; inactive.
Knock-down of HEXA (hexosaminidase subunit alpha) gave: robust z-score, replicate 1 = -0.441; robust z-score, replicate 2 = -0.0311; robust z-score, replicate 3 = -0.313; inactive.
For CSRP1 (cysteine and glycine rich protein 1), the entry reads robust z-score, replicate 1 = -0.721; robust z-score, replicate 2 = -0.151; robust z-score, replicate 3 = -0.783; inactive.
EIF4G1 (eukaryotic translation initiation factor 4 gamma 1) gave robust z-score, replicate 1 = -0.237; robust z-score, replicate 2 = -0.378; robust z-score, replicate 3 = 0.0175; inactive.
For RALGAPB (Ral GTPase activating protein non-catalytic subunit beta), the values are robust z-score, replicate 1 = 0.0785; robust z-score, replicate 2 = -0.116; robust z-score, replicate 3 = 1.17; inactive.
EGLN2 (egl-9 family hypoxia inducible factor 2) showed robust z-score, replicate 1 = -1.49; robust z-score, replicate 2 = -2.23; robust z-score, replicate 3 = -1.34; inactive.
NID1 (nidogen 1) scored robust z-score, replicate 1 = 0.2; robust z-score, replicate 2 = 0.557; robust z-score, replicate 3 = -0.323; inactive.
After knock-down of TIPE1 (TNF alpha induced protein 8 like 1), the screen gave robust z-score, replicate 1 = -0.838; robust z-score, replicate 2 = -0.454; robust z-score, replicate 3 = 0.135; inactive.
